Some of the results follow.
tested on: T1, CTL2-GFP (C. trachomatis L2/434/Bu, GFP-expressing); parameters: species or system HeLa; Intracellular C. trachomatis growth in HeLa cells, bulk GFP fluorescence relative to DMSO; settings: bulk GFP, single well; 28.5 h, 10 µM; inhibitor
T1 construct: L2/434/Bu, GFP-expressing

SMILES	% of control remaining [%]
O=C(O)CNC(=O)CN1C(=O)c2cc(Cl)c(Cl)cc2C1=O [CBK287156]	124.686
O=C(O)c1cccc(-c2nc(-c3ccc(S(=O)(=O)N4CCOCC4)cc3)cs2)c1 [CBK297730]	124.908
CCc1cc(C(=O)OC)c(NC(=O)C2C3C=CC(C3)C2C(=O)O)s1 (centres unmarked) [CBK270315]	112.217
CC(C)NC(=O)c1sc2ccccc2c1C1CCN(C(=O)COc2ccccc2)C1 (centres unmarked) [CBK285875]	116.463
Cc1cc(C)n2nc(C(=O)N3CCCC34CC=CC4)cc2n1 [CBK282815]	137.766
OCCc1ccc(Oc2ncc(C(F)(F)F)cc2Cl)cc1 [CBK161643]	131.643
CC(Cc1cccs1)NC(=O)C(C)Cn1cccn1 (centres unmarked) [CBK283250]	129.952
COC(=O)c1cc(OC)c(OC)cc1NC(=O)C1CCC1C(=O)O (centres unmarked) [CBK057084]	122.569
Cc1ccc(-c2nnc(CNC(=O)Cc3ccccc3F)o2)s1 [CBK284644]	136.347
Cn1cnnc1CCC(=O)NCC1CCN(c2ccccc2F)C1 (centres unmarked) [CBK307587]	164.033
COc1cccc(CCNC(=O)CCN2C(=O)CCC2=O)c1 [CBK023150]	136.339
Cc1nc(S(=O)(=O)CC2CCCO2)n(CC(C)C)c1C (centres unmarked) [CBK304882]	86.2508
CCc1nc2c(OCCOC)cccn2c1N(CCOC)C(C)=O [CBK147845]	149.015
CCc1nc2cc(NC(=O)c3cc(C4CC4)nn3C)ccc2n1C [CBK283275]	122.5
CC1=NN(C(=O)CSCc2ccccc2)C(O)(c2ccc(Cl)cc2)C1 (centres unmarked) [CBK267136]	133.915
O=C(Nc1ccccn1)c1nccnc1-c1ccc(COc2ccccc2)cc1 [CBK050835]	132.676
O=C1NC2=C(C(=O)N(CCN3CCCC3)C2)C(c2cccc(F)c2)N1 (centres unmarked) [CBK282365]	93.896
O=C(Nc1ccccc1N1CCNCC1)c1cccs1 [CBK029443T]	115.59
Cc1ccc(S(=O)(=O)Cc2ccc(C(=O)Nc3cccc(-c4cnc5ccccc5n4)c3)cc2)cc1 [CBK268589]	147.783
Cn1nc(C2CCN(C(=O)c3cccc(F)c3)CC2)c2cccnc21 [CBK284898]	140.84
Cc1ccc2c(c1)C(C[C@H]1CN(C(=O)c3ccco3)CC[C@H]1CC(=O)O)=NCC2 [CBK289162]	139.915

SMILES	% of control remaining [%]
c1ccc(-c2nc(N3CCOCC3)n3ccccc23)cc1 [CBK014407]	139.005
Cc1csc(C(Cc2ccsc2)NC(=O)C2CC3C=CC2O3)n1 (centres unmarked) [CBK285108]	110.469
COC(=O)CC(NC(=O)c1cccc(NC(C)=O)c1)c1cccs1 (centres unmarked) [CBK304537]	135.123
C=Cn1cc(CN2CCCN(Cc3cccc(F)c3)CC2)c(C)n1 [CBK282594]	111.842
O=C(Nc1cc(Cl)ccc1Cl)C1CN(S(=O)(=O)c2ccccc2)CCN1S(=O)(=O)c1ccccc1 (centres unmarked) [CBK267004]	115.794
COc1cc(CN2CCC[C@@H]2CN2CCCC2)cc(OC)c1OC [CBK149100]	122.769
CC(=O)Nc1ccc(S(=O)(=O)N(c2ccc(C(C)(C)C)cc2)C2CCNCC2)cc1 [CBK165062T]	100
N#CCCCN1CCC(Oc2nccnc2OCc2ccc(Cl)cc2Cl)CC1 [CBK161568]	108.62
Cc1cc(C)c(CNC(=O)N(C)C(C)c2ccncn2)cn1 (centres unmarked) [CBK307192]	124.081
O=c1c2c3c(sc2ncn1CC(O)CO)CCCC3 (centres unmarked) [CBK269448]	120.728
CC1CCN(Cc2c(-c3cccnc3)[nH]c3cccnc23)CC1 [CBK281494]	135.387
CC1(C)CC(=O)c2sc(NC(=O)c3cccc(N4C(=O)CCC4=O)c3)nc2C1 [CBK287565]	91.7651
Cn1cc(CC(=O)NCc2ccccc2)c2ccccc21 [CBK200200]	109.246
CN1C(=O)COc2ccccc2CCCC[C@@H]2[C@H]1CCCN2CC(N)=O [CBK292098]	116.695
Cc1cc2c(cc1C)C(=O)CC1(CCN(C(=O)c3ccco3)CC1)O2 [CBK282819]	117.717
O=C1CC(C(=O)Nc2ncccn2)C(c2ccccc2)O1 (centres unmarked) [CBK265130]	109.014
C=Cn1ncc(CN(CCCN(C)C)Cc2ccco2)c1C [CBK283228]	126.527
COC(=O)c1cc(C(=O)CSc2nc(N)cc(O)n2)ccc1O [CBK110407]	97.7072
CS(=O)(=O)N1CC2(CCN(CC(N)=O)CC2)c2ccccc21 [CBK126678]	120.769
N/C(Cc1ccc(Cl)cc1Cl)=N\OC(=O)c1cccc([N+](=O)[O-])c1 [CBK264317]	122.762

Some of these compounds in order of number of heavy atoms, ascending.
SMILES	% of control remaining [%]
Cc1nc(S(=O)(=O)CC2CCCO2)n(CC(C)C)c1C (centres unmarked) [CBK304882]	86.2508
c1ccc(-c2nc(N3CCOCC3)n3ccccc23)cc1 [CBK014407]	139.005
COc1cccc(CCNC(=O)CCN2C(=O)CCC2=O)c1 [CBK023150]	136.339
Cc1csc(C(Cc2ccsc2)NC(=O)C2CC3C=CC2O3)n1 (centres unmarked) [CBK285108]	110.469
CCc1cc(C(=O)OC)c(NC(=O)C2C3C=CC(C3)C2C(=O)O)s1 (centres unmarked) [CBK270315]	112.217
O=C1NC2=C(C(=O)N(CCN3CCCC3)C2)C(c2cccc(F)c2)N1 (centres unmarked) [CBK282365]	93.896
CN1C(=O)COc2ccccc2CCCC[C@@H]2[C@H]1CCCN2CC(N)=O [CBK292098]	116.695
CC1(C)CC(=O)c2sc(NC(=O)c3cccc(N4C(=O)CCC4=O)c3)nc2C1 [CBK287565]	91.7651
O=C(Nc1ccccn1)c1nccnc1-c1ccc(COc2ccccc2)cc1 [CBK050835]	132.676
CC(=O)Nc1ccc(S(=O)(=O)N(c2ccc(C(C)(C)C)cc2)C2CCNCC2)cc1 [CBK165062T]	100
O=C(Nc1cc(Cl)ccc1Cl)C1CN(S(=O)(=O)c2ccccc2)CCN1S(=O)(=O)c1ccccc1 (centres unmarked) [CBK267004]	115.794
Cc1ccc(S(=O)(=O)Cc2ccc(C(=O)Nc3cccc(-c4cnc5ccccc5n4)c3)cc2)cc1 [CBK268589]	147.783
